PubChem BioAssay AID1259308 | NCATS – 2017
Aim: 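Genes whose loss raises luciferase production in HEK293 cells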 (primary screen). Cells: human HEK293 embryonic kidney cells stably expressing firefly luciferase (HEK-CMV-Luc2-Hygro). Reagents: single siRNA against human genes, 0.8 pmol siRNA per well. Timing: 72 h. Measurement: 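Luciferase light (ONE-Glo) measured on one replicate plate set and viability (CellTiter-Glo) on the other, scaled to a negative control siRNA, with robust z-scores and luciferase per cell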. Direction: total luciferase, z-score and total luciferase, % of control: higher = more reporter protein produced; luciferase per cell, z-score: higher = more reporter output per viable cell; viable cells, % of control: higher = more viable cells. Hit rule: 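Active when the median/MAD z-score for overall luciferase is greater than 3; a gene was taken forward for validation with new siRNAs if at least two of its three siRNAs passed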. Calls: active = raised luciferase; inactive = no rise.
In all, the deposit lists about 59,000 reagents; this is a part drawn at random. About 1,510 of them (2.6%) were called active. 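Calls use total luciferase alone and ignore viability, so some active siRNAs may act by altering cell number.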 Reagents against one gene are numbered here.

target gene | reagent | total luciferase, z-score | total luciferase, % of control | luciferase per cell, z-score | viable cells, % of control | Outcome
GREB1 | 1 | 0.663 | 95.1 | -0.208 | 112 | inactive
GREB1 | 2 | -0.231 | 77.3 | 0.592 | 73.9 | inactive
GREB1 | 3 | 0.0669 | 83.2 | -0.328 | 101 | inactive
RCOR1 | 1 | -1.01 | 61.9 | 0.242 | 64.9 | inactive
RCOR1 | 2 | -1.2 | 58 | -1.43 | 94.3 | inactive
RCOR1 | 3 | 1.65 | 115 | 1.7 | 82 | inactive
OR4N4 | 1 | 0.0731 | 83.3 | 2.2 | 52.2 | inactive
OR4N4 | 2 | 0.707 | 95.9 | 1.42 | 73.7 | inactive
OR4N4 | 3 | -0.791 | 66.2 | -1.45 | 108 | inactive
LINC02906 | 1 | 0.593 | 93.7 | 0.476 | 92.3 | inactive
LINC02906 | 2 | 0.482 | 91.5 | 0.244 | 95.8 | inactive
LINC02906 | 3 | 1.88 | 119 | 2.33 | 72.2 | inactive

The list goes on (3 carried over from the part before).
target gene | reagent | total luciferase, z-score | total luciferase, % of control | luciferase per cell, z-score | viable cells, % of control | Outcome
LINC02906 | 1 | 0.593 | 93.7 | 0.476 | 92.3 | inactive
LINC02906 | 2 | 0.482 | 91.5 | 0.244 | 95.8 | inactive
LINC02906 | 3 | 1.88 | 119 | 2.33 | 72.2 | inactive
ZNF101P2 | 1 | -0.368 | 74.6 | 1.58 | 54.9 | inactive
ZNF101P2 | 2 | 1.08 | 103 | 0.624 | 98 | inactive
ZNF101P2 | 3 | -0.301 | 75.9 | 0.435 | 75.6 | inactive
DHX29 | 1 | 0.323 | 88.3 | 0.666 | 82.8 | inactive
DHX29 | 2 | -0.981 | 62.4 | 0.855 | 55.6 | inactive
DHX29 | 3 | 1.31 | 108 | 1.18 | 88.5 | inactive
CFAP74 | 1 | -2.1 | 40.1 | -2.83 | 94.4 | inactive
CFAP74 | 2 | 0.0997 | 83.9 | -0.275 | 101 | inactive
CFAP74 | 3 | -0.635 | 69.2 | -1.14 | 105 | inactive
CFAP74 | 4 | 0.5 | 91.8 | 0.342 | 93.8 | inactive
CFAP74 | 5 | -0.214 | 77.6 | 0.0303 | 86.1 | inactive
CFAP74 | 6 | 2.6 | 134 | 2.61 | 75.2 | inactive
